Measurements as given in PubChem BioAssay AID588590 (National Center for Advancing Translational Sciences (NCATS), 2011).
The whole screen tested about 390,000 compounds, of which about 4,000 (1%) were called active. Inconclusive means that the source gave no clear call. Such entries were picked first, then a sample of the others. The call rests on the fitted dose curve; in most records, active means well fitted inhibition curve with a large enough effect; inconclusive means small, poorly fitted or top-dose-only effect, or another doubt; inactive means no such curve, though single readings can be large or run the other way. Where the call is inconclusive, the potency comes from a doubtful curve fit.

By UniProt entry, the sequences of proteins in these tests, tags left out. Where a name states a change or a piece, a line headed by the entry shows the natural chain unless it says otherwise.
UniProt Q9UNA4: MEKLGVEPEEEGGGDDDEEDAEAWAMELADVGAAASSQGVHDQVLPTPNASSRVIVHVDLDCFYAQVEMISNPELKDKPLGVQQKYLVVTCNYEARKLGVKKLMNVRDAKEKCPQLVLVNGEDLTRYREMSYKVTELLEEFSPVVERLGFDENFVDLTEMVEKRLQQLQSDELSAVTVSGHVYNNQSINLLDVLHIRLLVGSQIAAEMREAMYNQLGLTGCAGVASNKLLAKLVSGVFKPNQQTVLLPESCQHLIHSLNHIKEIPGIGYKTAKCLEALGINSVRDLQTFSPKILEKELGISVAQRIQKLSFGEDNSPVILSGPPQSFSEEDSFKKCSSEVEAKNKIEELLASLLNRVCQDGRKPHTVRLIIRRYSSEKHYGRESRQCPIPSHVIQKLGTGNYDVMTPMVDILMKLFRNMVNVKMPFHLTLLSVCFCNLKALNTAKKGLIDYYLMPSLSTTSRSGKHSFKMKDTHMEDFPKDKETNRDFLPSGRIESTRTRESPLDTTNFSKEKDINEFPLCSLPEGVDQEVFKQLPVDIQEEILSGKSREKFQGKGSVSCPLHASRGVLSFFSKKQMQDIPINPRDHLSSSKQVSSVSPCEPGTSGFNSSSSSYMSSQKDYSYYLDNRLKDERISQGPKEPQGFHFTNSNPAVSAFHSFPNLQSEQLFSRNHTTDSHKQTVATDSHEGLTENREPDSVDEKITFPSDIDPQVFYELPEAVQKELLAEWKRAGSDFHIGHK

The compounds below were run against DNA polymerase iota (Homo sapiens) (UniProt Q9UNA4) (assay: qHTS for Inhibitors of Polymerase Iota). Details: Pol iota fluorescent replication assay, 10 min; series mostly up to 115 µM.
Outline: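 Pol iota at 10 nM preincubated 15 min with compounds at room temperature; reaction started with fluorescent substrate, 50 nM final. Fluorescence read kinetically at 0 and 10 min; buffer-only wells as negative control.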
Potency means the concentration at half of the fitted maximal effect.

Q: With `CCOC(=O)c1cn(CC(=O)Nc2ccc(OC)cc2OC)nn1` as the compound, how does the Potency read?
A: Its Potency is inconclusive: 89.1 µM [inhibitor, single point].

Q: With `O=S(=O)(c1ccc(-c2n[nH]c(=S)o2)cc1)N1CCCC1` as the compound, how does the Potency read?
A: The Potency was “inactive”.

Q: Which Potency does the source give for `Cc1ccnc(NC(=O)CCC(=O)N(CC(=O)NC2CCCCC2)Cc2cccs2)c1` here?
A: The Potency was “inactive”.

Q: For `COc1ccc(NC(=O)CSc2nnnn2C2CC2)cc1S(=O)(=O)N1CCOCC1`, which Potency is on record?
A: Its Potency is inconclusive: 25.1 µM [inhibitor, full curve].

Q: `O=C(N/N=C/c1cccc([N+](=O)[O-])c1)c1cc(-c2ccc3c(c2)OCO3)n[nH]1` was tested. Which Potency did it give?
A: The Potency was inconclusive: 2.82 µM [inhibitor, partial curve, poor fit].

Q: With `CC(C)=CCC/C(C)=C/CNC(=O)C[C@H]1C[C@H](C(=O)N2CCCCC2)[C@@]2(CCc3ccccc3)c3[nH]c4cc(-c5ccco5)ccc4c3CCN2C1=O` as the compound, how does the Potency read?
A: The Potency was inconclusive: 22.4 µM [inhibitor, single point].

Q: How did the Potency turn out when `CCC(=Nc1ccc(N)cc1)C1=C(O)C(C(=O)OC)C(C)(C)CC1=O` (configuration not stated) was run?
A: The Potency was inconclusive: 11.2 µM [inhibitor, full curve, poor fit].

Q: For `Cc1ccc(C)c(N2N=C(C(=O)N(CC(C)C)c3c(N)n(Cc4ccccc4)c(=O)[nH]c3=O)CCC2=O)c1`, which Potency is on record?
A: Its Potency is inconclusive: 79.4 µM [inhibitor, single point].

Q: Which Potency does the source give for `CC(=O)Nc1c(O)nc(SCC(=O)Nc2nnc(SCc3ccccc3)s2)[nH]c1=O` here?
A: The Potency was active: 25.1 µM.

Q: `CN(CCN(C)c1nc(-c2cccs2)nc2ccccc12)C(=O)OC(C)(C)C` was tested. Which Potency did it give?
A: Its Potency is “inactive”.

Q: With `COc1ccc(CN2C(=O)C(CC(C)C)Nc3ncnc(N4CCOCC4)c32)cc1` (configuration not stated) as the compound, how does the Potency read?
A: Its Potency is inconclusive: 15.8 µM [inhibitor, full curve, poor fit].

Q: How did the Potency turn out when `N#Cc1cccc(NC(=O)CSc2sc3c(O)cc(=O)[nH]c3c2C#N)c1` was run?
A: The Potency was inconclusive: 2.82 µM [inhibitor, partial curve, poor fit].

Q: For `Cc1ccc([N+](=O)[O-])c(OCCN2CCNCC2)c1`, which Potency is on record?
A: The Potency was inconclusive: 10 µM [inhibitor, partial curve, poor fit].

Q: Which Potency does the source give for `O=C(O)c1ccccc1NS(=O)(=O)c1ccc2c(c1)OCCO2` here?
A: The Potency was inconclusive: 63.1 µM [inhibitor, partial curve, poor fit].

Q: How did the Potency turn out when `NC(=O)c1ccsc1NC(=O)COC(=O)Cc1n[nH]c(=O)c2ccccc12` was run?
A: The Potency was inconclusive: 56.2 µM [inhibitor, partial curve, poor fit].

Q: With `CCCCCCCCCCCCN1[C@@H](CC(=O)O)c2cc(C(F)(F)F)ccc2S1(=O)=O` as the compound, how does the Potency read?
A: Its Potency is inconclusive: 50.1 µM [inhibitor, partial curve].

Q: With `CN(C)c1ccc(C#Cc2ccc3cc(CCO)oc(=O)c3c2)cc1` as the compound, how does the Potency read?
A: The Potency was inconclusive: 50.1 µM [inhibitor, partial curve, poor fit].

Q: Which Potency does the source give for `CC1=NN(c2ccccc2)C(=O)/C1=C\c1cc(C)n(-c2ccccc2)c1C` here?
A: Its Potency is “inactive”.

Q: Which Potency does the source give for `CCCCN(c1ccccc1)c1ncnc2nc[nH]c12` here?
A: The Potency was inconclusive: 89.1 µM [inhibitor, single point].

Q: Which Potency does the source give for `COc1ccc(C(=O)OC2=C(C(=O)c3ccccc3)N(C)S(=O)(=O)c3ccccc32)cc1OC` here?
A: Its Potency is inconclusive: 112 µM [inhibitor, partial curve, poor fit].

Q: For `COCCn1c(=NC(=O)c2ccc3c(c2)OCCO3)sc2cc(C(=O)OC)ccc21`, which Potency is on record?
A: Its Potency is “inactive”.

Q: `Nc1c(C(=O)CSc2nnc(Cc3ccccc3)o2)c(=O)[nH]c(=O)n1C1CC1` was tested. Which Potency did it give?
A: Its Potency is inconclusive: 3.16 µM [inhibitor, partial curve, poor fit].

Q: How did the Potency turn out when `Cn1c(SCC(=O)Nc2nccs2)nnc1-c1ccncc1` was run?
A: The Potency was inconclusive: 15.8 µM [inhibitor, full curve, poor fit].

Q: How did the Potency turn out when `Cc1ccc(Cl)cc1NC(=O)Cn1c(=O)oc2cc(S(=O)(=O)N3CCCC3)ccc21` was run?
A: The Potency was inconclusive: 100 µM [inhibitor, single point].

Q: For `Cc1nn(C)cc1S(=O)(=O)Nc1ccc(C(F)(F)F)cc1`, which Potency is on record?
A: Its Potency is “inactive”.

Q: For `CCOc1ccc(CCNC(=O)CCCn2c(=O)c3cccn3c3ccccc32)cc1`, which Potency is on record?
A: Its Potency is “inactive”.

Q: `Cc1ccccc1NS(=O)(=O)c1csc(C(N)=O)c1` was tested. Which Potency did it give?
A: Its Potency is inconclusive: 89.1 µM [inhibitor, single point].

Q: Which Potency does the source give for `Cc1ccc(NC(=S)N(Cc2cccs2)Cc2cc3cccc(C)c3[nH]c2=O)cc1` here?
A: The Potency was inconclusive: 112 µM [inhibitor, single point].

Q: `COc1ccc(C(=O)Nc2nnc(SCc3cc(=O)c4cc(C)cc(C)c4[nH]3)s2)cc1` was tested. Which Potency did it give?
A: Its Potency is inconclusive: 100 µM [inhibitor, single point].

Q: For `O=C(NCc1ccco1)c1sc(=S)n2c1[nH]c(=O)c1ccccc12`, which Potency is on record?
A: Its Potency is inconclusive: 14.1 µM [inhibitor, partial curve, poor fit].

Q: With `COc1ccc(CN(C(=O)CN2C(=O)c3ccccc3S2(=O)=O)C(C(=O)NCC2CCCO2)c2ccco2)cc1` (configuration not stated) as the compound, how does the Potency read?
A: The Potency was “inactive”.

Q: For `Cn1c(=O)c2c(nc(SCC(=O)Nc3ccccc3F)n2Cc2ccc(Cl)cc2)n(C)c1=O`, which Potency is on record?
A: The Potency was “inactive”.

Q: `CC(C)OC(=O)CC12CN(C)CC(CC(=O)OC(C)C)(CN(C)C1)C2=O` was tested. Which Potency did it give?
A: The Potency was “inactive”.

Q: How did the Potency turn out when `Cc1ccc(Cl)cc1NC(=O)C(C)n1nc(-c2ccccc2)ccc1=O` (configuration not stated) was run?
A: Its Potency is inconclusive: 89.1 µM [inhibitor, single point].

Q: Which Potency does the source give for `Cc1ccccc1N1CCN(S(=O)(=O)c2nnc(NC(=O)c3ccco3)s2)CC1` here?
A: Its Potency is inconclusive: 44.7 µM [inhibitor, partial curve].

Q: With `Cc1ccc(-n2ncc3c(NCCC4=CCCCC4)ncnc32)cc1` as the compound, how does the Potency read?
A: Its Potency is “inactive”.

Q: `NC(=O)c1c(NC(=O)CN2C(=O)NC(Cc3ccccc3)C2=O)sc2c1CCC2` (configuration not stated) was tested. Which Potency did it give?
A: Its Potency is active: 44.7 µM.

Q: Which Potency does the source give for `S=c1[nH]c2ccc(Cl)cc2s1` here?
A: Its Potency is “inactive”.

Q: For `COC(=O)c1scc(-c2ccc(C)cc2)c1S(=O)(=O)N1CCN(c2ccc(C(C)=O)cc2)CC1`, which Potency is on record?
A: Its Potency is “inactive”.

Q: With `COc1ccc2cc3c(N)nn(C(=O)c4ccccc4[N+](=O)[O-])c3nc2c1` as the compound, how does the Potency read?
A: The Potency was “inactive”.

Q: For `CCOC(=O)C1=C(COc2ccccc2)NC(=O)NC1c1cccc([N+](=O)[O-])c1` (configuration not stated), which Potency is on record?
A: Its Potency is active: 39.8 µM.

Q: Which Potency does the source give for `O=c1cc(/N=C/c2coc3cc(Br)ccc3c2=O)[nH]c(=S)[nH]1` here?
A: Its Potency is inconclusive: 39.8 µM [inhibitor, single point].

Q: Which Potency does the source give for `COCCCNC(=O)Cn1ccc(NC(=O)OCc2ccccc2)nc1=O` here?
A: The Potency was inconclusive: 35.5 µM [inhibitor, single point].

Q: `Cn1c(=O)c2[nH]c(CCCCCCCc3nc4ccccc4[nH]3)nc2n(C)c1=O` was tested. Which Potency did it give?
A: The Potency was “inactive”.

Q: How did the Potency turn out when `Cc1nn(-c2ccccc2)c(C)c1NC(=O)COC(=O)c1ccc(O)cc1O` was run?
A: Its Potency is inconclusive: 89.1 µM [inhibitor, single point].

Q: `CC(/C=C1\SC(=S)N(NS(=O)(=O)c2ccccc2)C1=O)=C\c1ccccc1` was tested. Which Potency did it give?
A: The Potency was inconclusive: 35.5 µM [inhibitor, single point].

Q: How did the Potency turn out when `O=C(CN1CCN(S(=O)(=O)c2cc(Cl)ccc2Cl)CC1)c1ccc(O)c(O)c1` was run?
A: The Potency was active: 10 µM.

Q: Which Potency does the source give for `CCc1ccc2oc(C(=O)Nc3ccccc3C(=O)OC)cc(=O)c2c1` here?
A: Its Potency is “inactive”.

Q: Which Potency does the source give for `Cc1ccc(S(=O)(=O)NN2C(=O)/C(=C/c3cccnc3)SC2=S)cc1` here?
A: Its Potency is inconclusive: 31.6 µM [inhibitor, partial curve, poor fit].

Q: How did the Potency turn out when `COc1c(F)c(F)c(C(=O)O)c(Nc2ccccc2C)c1F` was run?
A: Its Potency is inconclusive: 79.4 µM [inhibitor, single point].

Q: How did the Potency turn out when `Cc1cccc(N2CCN(C(=O)Cn3nc(Cc4cccnc4)c4ccccc4c3=O)CC2)c1C` was run?
A: The Potency was “inactive”.

Q: Which Potency does the source give for `Clc1cccc(-n2ncc3c(NCCCn4ccnc4)ncnc32)c1` here?
A: Its Potency is “inactive”.

Q: For `O=C(Nc1cccc(Br)c1)c1cc2ccccc2o1`, which Potency is on record?
A: The Potency was inconclusive: 79.4 µM [inhibitor, single point].

Q: For `CSc1ccc(CSCC(=O)N2CCN(S(=O)(=O)c3ccc(C)cc3C)CC2)cc1`, which Potency is on record?
A: The Potency was “inactive”.

Q: Which Potency does the source give for `CC1=C(C#N)C(=O)NC(=O)/C1=C\c1ccc(-c2ccc(C)cc2[N+](=O)[O-])o1` here?
A: The Potency was inconclusive: 28.2 µM [inhibitor, single point].

Q: Which Potency does the source give for `O=C(CCOc1ccccc1)N(Cc1cccnc1)c1nc2c(F)cccc2s1` here?
A: The Potency was inconclusive: 7.08 µM [inhibitor, partial curve, poor fit].

Q: For `Cc1ccc(C2(C)NC(=O)N(CC(=O)NC(=O)NC(C)C)C2=O)cc1` (configuration not stated), which Potency is on record?
A: The Potency was “inactive”.

Q: Which Potency does the source give for `COC(=O)c1ccc2c(c1)C(C)(C)C(/C=C/c1ccccc1O)=[N+]2C` here?
A: The Potency was active: 28.2 µM.

Q: With `CSc1cccc(NC(=O)CCNS(=O)(=O)c2ccc3[nH]c(=O)oc3c2)c1` as the compound, how does the Potency read?
A: The Potency was inconclusive: 56.2 µM [inhibitor, partial curve, poor fit].

Q: Which Potency does the source give for `CCc1cc(-c2n[nH]c(=S)n2-c2ccccc2C)cs1` here?
A: The Potency was inconclusive: 79.4 µM [inhibitor, partial curve, poor fit].

Q: Which Potency does the source give for `O=C(Nc1ccc(Cl)c(C(F)(F)F)c1)C1CCN(S(=O)(=O)c2cccc3nonc23)CC1` here?
A: Its Potency is inconclusive: 89.1 µM [inhibitor, single point].

Q: With `CCOC(=O)c1ccc(-n2[nH]c(-c3ccccc3)cc2=O)cc1` as the compound, how does the Potency read?
A: The Potency was inconclusive: 1.26 µM [inhibitor, full curve, poor fit].

Q: For `CC(C)(C)c1ccc(C(=O)N2CCC(c3nc4ccccc4o3)CC2)cc1`, which Potency is on record?
A: The Potency was “inactive”.

Q: Which Potency does the source give for `Cc1nc(-n2[nH]c3c(c2=O)CCCC3)[nH]c(=O)c1Cc1ccccc1` here?
A: Its Potency is inconclusive: 12.6 µM [inhibitor, full curve].

Q: With `O=C(NCC(=O)N1CCN(c2ccccc2O)CC1)c1ccc(Br)o1` as the compound, how does the Potency read?
A: Its Potency is inconclusive: 56.2 µM [inhibitor, partial curve, poor fit].

Q: Which Potency does the source give for `O=C(NC1(C(F)(F)F)C(=O)Nc2c1c(=O)[nH]c(=O)n2Cc1ccco1)C1CC1` (configuration not stated) here?
A: The Potency was inconclusive: 35.5 µM [inhibitor, single point].
